Data as given in PubChem BioAssay AID1224830 (NIAID, 2016)
Purpose: 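Regulators of TLR4 signalling towards TNF-alpha in macrophage-like cells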 (primary screen). Cells: human THP-1 monocytic leukaemia cells, TNF dual-luciferase reporter clone, PMA-differentiated to macrophage-like cells. Knock-down reagent: siRNA pool against human genes, 50 nM. Time to read-out: LPS for 4 h, given about 3 days after siRNA transfection. Challenge: bacterial LPS (TLR4 ligand), 10 ng/ml. Measurement: 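Ratio of firefly to renilla light, scaled to the plate median and expressed as a robust z-score per replicate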. Reading the numbers: TNF reporter robust z-score: higher = stronger TNF reporter response to LPS. Hit rule: 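Each well counts as active if its z-score is over 2.8 or under -1.5; controls are left without a call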.
Shown is one part, drawn at random, of about 18,000 deposited reagents. About 2,900 of them (16%) count as active. 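Calls are made per well; low scores hint the gene aids the LPS response, high scores that it dampens it.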 Repeated entries: four replicate wells of each siRNA pool.

gene knocked down	TNF reporter robust z-score	call
VAC14	0.01	inactive
VAC14	-0.15	inactive
VAC14	0.05	inactive
VAC14	-0.05	inactive
PFKP	0.06	inactive
PFKP	-0.04	inactive
PFKP	-0.08	inactive
PFKP	-0.26	inactive
CSAG1	0.75	inactive
CSAG1	0.38	inactive
CSAG1	0.57	inactive
CSAG1	0.22	inactive
FOXR2	-2	active
FOXR2	-1.16	inactive
FOXR2	-1	inactive
FOXR2	0.1	inactive
PLRG1	-1.15	inactive
PLRG1	-0.51	inactive
PLRG1	-1.16	inactive
PLRG1	-0.87	inactive
CORO6	-0.32	inactive
CORO6	0.93	inactive
CORO6	1.07	inactive
CORO6	0.91	inactive
OR5AN1	0.39	inactive
OR5AN1	0.21	inactive
OR5AN1	-1	inactive
OR5AN1	1.1	inactive
KDM2B	0.94	inactive
KDM2B	0.66	inactive
KDM2B	-1.28	inactive
KDM2B	-0.54	inactive
RGS8	-0.81	inactive
RGS8	0.27	inactive
RGS8	-0.35	inactive
RGS8	-0.79	inactive
SARS1	0.36	inactive
SARS1	0.45	inactive
SARS1	0.47	inactive
SARS1	0.65	inactive
CFAP119	0.12	inactive
CFAP119	0.34	inactive
CFAP119	-0.53	inactive
CFAP119	0.68	inactive

Next part, starting with the last 4 of the part before.
gene knocked down	TNF reporter robust z-score	call
CFAP119	0.12	inactive
CFAP119	0.34	inactive
CFAP119	-0.53	inactive
CFAP119	0.68	inactive
CTAG1A	-0.72	inactive
CTAG1A	-0.62	inactive
CTAG1A	-0.43	inactive
CTAG1A	0.3	inactive
S100A8	-1.65	active
S100A8	-1.31	inactive
S100A8	-1	inactive
S100A8	-1.3	inactive
CHLSN	1.56	inactive
CHLSN	0.95	inactive
CHLSN	1.59	inactive
CHLSN	0.7	inactive
CPA5	-0.21	inactive
CPA5	1.63	inactive
CPA5	-0.12	inactive
CPA5	0.33	inactive
MYRFL	0.07	inactive
MYRFL	0.92	inactive
MYRFL	0.29	inactive
MYRFL	0.87	inactive
CDIN1	-0.09	inactive
CDIN1	-1.5	inactive
CDIN1	-1.19	inactive
CDIN1	0.03	inactive
PTTG1IP	-1.32	inactive
PTTG1IP	-1.05	inactive
PTTG1IP	-1.39	inactive
PTTG1IP	-0.98	inactive
PLEKHS1	0.24	inactive
PLEKHS1	-0.08	inactive
PLEKHS1	-0.92	inactive
PLEKHS1	-0.78	inactive
PABIR2	-1.18	inactive
PABIR2	-1.42	inactive
PABIR2	-1.09	inactive
PABIR2	-1.15	inactive
ADAM9	-0.87	inactive
ADAM9	-0.86	inactive
ADAM9	-1.01	inactive
ADAM9	1.74	inactive
NUP62	0.89	inactive
NUP62	0.27	inactive
NUP62	1.41	inactive
NUP62	-0.55	inactive
OR6A2	-0.2	inactive
OR6A2	0.38	inactive
OR6A2	0	inactive
OR6A2	-0.65	inactive
STAT3	0.38	inactive
STAT3	0.34	inactive
STAT3	0.45	inactive
STAT3	0.19	inactive
DNAJB7	0.52	inactive
DNAJB7	0.76	inactive
DNAJB7	-0.19	inactive
DNAJB7	0.8	inactive
CCIN	-0.34	inactive
CCIN	-0.06	inactive
CCIN	-0.07	inactive
CCIN	-0.38	inactive
INTS12	0.42	inactive
INTS12	0.51	inactive
INTS12	-0.79	inactive
INTS12	4.03	active
BLOC1S4	-0.07	inactive
BLOC1S4	-0.3	inactive
BLOC1S4	-0.28	inactive
BLOC1S4	-0.45	inactive
